Data published in the supplement of paper PMC4604168 (melanoma cell lines).
Some of the results follow. Many values rest on one well or one pass, so single values are uncertain.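 Imaging used 1,536-well plates; nuclei positive for cleaved PARP by antibody were divided by total DNA-stained nuclei to yield the apoptosis fraction. Doses for screening kept most cells viable, and cell lines differ markedly in resting and induced cleaved-PARP levels.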

Assays:
Test in all cases: cleaved PARP positive nuclei fraction relative to DMSO control; melanoma cells; higher = more apoptosis
Conditions in all cases: library dose: low library concentration; 72 h
[1] = tested on: CBRC034 (line from a melanoma biopsy)
[2] = tested on: COLO792
[3] = tested on: COLO800
[4] = tested on: COLO829
[5] = tested on: G361
[6] = tested on: IPC-298
[7] = tested on: IST-MEL1
[8] = tested on: LB2518-MEL
[9] = tested on: LOXIMVI
[10] = tested on: MEL-HO

SMILES | cleaved PARP positive nuclei fraction [1] [%] | cleaved PARP positive nuclei fraction [2] [%] | cleaved PARP positive nuclei fraction [3] [%] | cleaved PARP positive nuclei fraction [4] [%] | cleaved PARP positive nuclei fraction [5] [%] | cleaved PARP positive nuclei fraction [6] [%] | cleaved PARP positive nuclei fraction [7] [%] | cleaved PARP positive nuclei fraction [8] [%] | cleaved PARP positive nuclei fraction [9] [%] | cleaved PARP positive nuclei fraction [10] [%]
O=C(/C=C/c1cccnc1)NCCCCC1CCN(C(=O)c2ccccc2)CC1 + Cn1cc(C2=C(c3cn(C4CCN(Cc5ccccn5)CC4)c4ccccc34)C(=O)NC2=O)c2ccccc21 [Enzastaurin] (first compound 0.01 µM, partner dose 0.8 µM) | 1330 | 548 | 202 | 102 | 3770 | 401 | 158 | 388 | 24.3 | 83.2
N.N.[Cl][Pt][Cl] [cisplatin] + OCc1c[nH]c2ccccc12 [Indole-3-carbinol] (first compound 1.6 µM, partner dose 0.8 µM) | 46.5 | 197 | 81 | 98.6 | 184 | 83.5 | 67.4 | 110 | 67.6 | 46.1
Cc1ccc(Nc2nccc(N(C)c3ccc4c(C)n(C)nc4c3)n2)cc1S(N)(=O)=O [Pazopanib] + Cn1cc(C2=C(c3cn(C4CCN(Cc5ccccn5)CC4)c4ccccc34)C(=O)NC2=O)c2ccccc21 [Enzastaurin] (first compound 0.4 µM, partner dose 0.8 µM) | 66.4 | 99.5 | 80 | 56.9 | 95.2 | 97.9 | 244 | 110 | 153 | 109
N#CC[C@H](C1CCCC1)n1cc(-c2ncnc3[nH]ccc23)cn1 [ruxolitinib] + Cn1cc(C2=C(c3cn(C4CCN(Cc5ccccn5)CC4)c4ccccc34)C(=O)NC2=O)c2ccccc21 [Enzastaurin] (first compound 1 µM, partner dose 0.8 µM) | 66.3 | 79.5 | 75.3 | 79.7 | 155 | 56.4 | 112 | 107 | 170 | 41.3
CCCS(=O)(=O)Nc1ccc(F)c(C(=O)c2c[nH]c3ncc(Cl)cc23)c1F + C[As](C)SC[C@H](NC(=O)CC[C@H](N)C(=O)O)C(=O)NCC(=O)O [Darinaparsin] (first compound 0.08 µM, partner dose 0.4 µM) | 65.4 | 83.1 | 101 | 115 | 106 | 173 | 95.6 | 78.6 | 86.5 | 225
Cc1cc(Nc2cc(N3CCN(C)CC3)nc(Sc3ccc(NC(=O)C4CC4)cc3)n2)n[nH]1 [Tozasertib] + Cn1cc(C2=C(c3cn(C4CCN(Cc5ccccn5)CC4)c4ccccc34)C(=O)NC2=O)c2ccccc21 [Enzastaurin] (first compound 0.006 µM, partner dose 0.8 µM) | 68.4 | 56 | 380 | 154 | 151 | 88 | 64.1 | 63.5 | 85.8 | 180
N.N.[Cl][Pt][Cl] [cisplatin] + Cc1nc(Nc2ncc(C(=O)Nc3c(C)cccc3Cl)s2)cc(N2CCN(CCO)CC2)n1 [dasatanib] (first compound 1.6 µM, partner dose 0.004 µM) | 110 | 103 | 133 | 89.6 | 103 | 85.9 | 64.9 | 121 | 187 | 218
CCCCCCCCc1ccc(CCC(N)(CO)CO)cc1 [fingolimod] + N.N.[Cl][Pt][Cl] [cisplatin] (first compound 2 µM, partner dose 1.6 µM) | 33.1 | 48.4 | 77.7 | 68.4 | 116 | 123 | 71.5 | 103 | 218 | 60.9
C[C@]12O[C@H](C[C@]1(O)CO)n1c3ccccc3c3c4c(c5c6ccccc6n2c5c31)CNC4=O [Lestaurtinib] + CN1CCN(c2ccc3nc(-c4c(N)c5c(F)cccc5[nH]c4=O)[nH]c3c2)CC1 [Dovitinib] (first compound 0.004 µM, partner dose 0.1 µM) | 46.6 | 47.2 | 62.1 | 107 | 80.8 | 92.9 | 66 | 86.4 | 65.2 | 140
Cc1cn(-c2cc(NC(=O)c3ccc(C)c(Nc4nccc(-c5cccnc5)n4)c3)cc(C(F)(F)F)c2)cn1 [nilotinib] + N.N.[Cl][Pt][Cl] [cisplatin] (first compound 0.2 µM, partner dose 1.6 µM) | 76 | 124 | 116 | 84.9 | 105 | 88.2 | 87.8 | 108 | 22.4 | 72.3
Cn1cc(C2=C(c3cn(C4CCN(Cc5ccccn5)CC4)c4ccccc34)C(=O)NC2=O)c2ccccc21 [Enzastaurin] + C[As](C)SC[C@H](NC(=O)CC[C@H](N)C(=O)O)C(=O)NCC(=O)O [Darinaparsin] (first compound 0.8 µM, partner dose 0.4 µM) | 70 | 72.5 | 65.9 | 115 | 109 | 125 | 108 | 204 | 94.7 | 180

Quoted at random: 2 entries already listed, in no set order.
SMILES | cleaved PARP positive nuclei fraction [1] [%] | cleaved PARP positive nuclei fraction [2] [%] | cleaved PARP positive nuclei fraction [3] [%] | cleaved PARP positive nuclei fraction [4] [%] | cleaved PARP positive nuclei fraction [5] [%] | cleaved PARP positive nuclei fraction [6] [%] | cleaved PARP positive nuclei fraction [7] [%] | cleaved PARP positive nuclei fraction [8] [%] | cleaved PARP positive nuclei fraction [9] [%] | cleaved PARP positive nuclei fraction [10] [%]
C[C@]12O[C@H](C[C@]1(O)CO)n1c3ccccc3c3c4c(c5c6ccccc6n2c5c31)CNC4=O [Lestaurtinib] + CN1CCN(c2ccc3nc(-c4c(N)c5c(F)cccc5[nH]c4=O)[nH]c3c2)CC1 [Dovitinib] (first compound 0.004 µM, partner dose 0.1 µM) | 46.6 | 47.2 | 62.1 | 107 | 80.8 | 92.9 | 66 | 86.4 | 65.2 | 140
N.N.[Cl][Pt][Cl] [cisplatin] + Cc1nc(Nc2ncc(C(=O)Nc3c(C)cccc3Cl)s2)cc(N2CCN(CCO)CC2)n1 [dasatanib] (first compound 1.6 µM, partner dose 0.004 µM) | 110 | 103 | 133 | 89.6 | 103 | 85.9 | 64.9 | 121 | 187 | 218
